Positions count from the first letter of the chain named. These are yes or no findings as the source states them, for the method shown. Some entries that bind do so weakly or less than the wild type. Sequences can lack the tags named with a protein.
Columns and labels:
MBP-Polα^+ (S. pombe) = target: T1, MBP-Polα^+ (S. pombe) (UniProt P28040); assay: pull-down
T1 sequence: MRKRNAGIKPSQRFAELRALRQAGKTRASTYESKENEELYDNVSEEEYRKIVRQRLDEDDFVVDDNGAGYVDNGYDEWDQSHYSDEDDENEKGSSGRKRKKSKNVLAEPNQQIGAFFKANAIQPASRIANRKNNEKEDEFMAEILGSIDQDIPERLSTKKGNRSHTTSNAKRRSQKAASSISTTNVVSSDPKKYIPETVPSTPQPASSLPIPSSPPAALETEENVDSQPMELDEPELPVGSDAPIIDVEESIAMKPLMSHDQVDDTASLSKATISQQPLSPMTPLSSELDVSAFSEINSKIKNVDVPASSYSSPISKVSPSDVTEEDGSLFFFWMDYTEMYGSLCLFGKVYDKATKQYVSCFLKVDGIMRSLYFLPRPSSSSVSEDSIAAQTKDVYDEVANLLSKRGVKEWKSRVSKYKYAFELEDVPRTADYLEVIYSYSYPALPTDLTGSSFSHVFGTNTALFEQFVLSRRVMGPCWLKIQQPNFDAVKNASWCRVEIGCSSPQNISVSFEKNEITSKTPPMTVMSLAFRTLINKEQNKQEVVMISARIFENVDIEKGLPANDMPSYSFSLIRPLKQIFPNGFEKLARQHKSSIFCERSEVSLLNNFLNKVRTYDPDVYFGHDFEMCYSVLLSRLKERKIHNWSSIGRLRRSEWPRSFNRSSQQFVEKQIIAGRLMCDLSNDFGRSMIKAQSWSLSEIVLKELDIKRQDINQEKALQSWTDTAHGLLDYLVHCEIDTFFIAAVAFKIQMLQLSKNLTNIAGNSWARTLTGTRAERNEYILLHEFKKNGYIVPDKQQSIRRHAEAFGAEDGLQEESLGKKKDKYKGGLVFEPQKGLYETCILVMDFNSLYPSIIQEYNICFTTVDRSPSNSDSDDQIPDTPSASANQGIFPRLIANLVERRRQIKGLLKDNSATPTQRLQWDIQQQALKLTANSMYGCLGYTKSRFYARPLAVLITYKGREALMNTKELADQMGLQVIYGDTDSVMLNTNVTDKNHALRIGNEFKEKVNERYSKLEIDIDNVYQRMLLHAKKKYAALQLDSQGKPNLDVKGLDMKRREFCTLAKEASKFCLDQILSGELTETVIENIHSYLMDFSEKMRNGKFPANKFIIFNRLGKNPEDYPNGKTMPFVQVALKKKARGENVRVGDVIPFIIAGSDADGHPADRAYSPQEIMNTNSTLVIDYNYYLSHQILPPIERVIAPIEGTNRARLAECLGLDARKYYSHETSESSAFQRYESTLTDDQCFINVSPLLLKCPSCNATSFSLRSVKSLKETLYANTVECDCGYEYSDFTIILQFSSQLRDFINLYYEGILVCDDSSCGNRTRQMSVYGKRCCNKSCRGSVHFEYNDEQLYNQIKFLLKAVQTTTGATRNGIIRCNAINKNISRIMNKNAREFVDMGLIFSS

[1] = target: T2, MBP-Polα^swi7-1 (S. pombe) (UniProt P28040); assay: pull-down
T2 sequence: T1 sequence with G1116E

binding (MBP-Polα^+ (S. pombe)): binds
binding [1]: binds
B1: GST-Cdc23 (protein, UniProt O42709 1-593)
chain: MHDPFIAEENDLDLEEKRLQRQLNEIQEKKRLRSAQKEASSENAEVIQVPRSPPQQVRVLTVSSPSKLKSPKRLILGIDKGKTGKDVSLGKGPRGPLPKPFHERLAEARNQERKRSDKLKTMKKNRKQSFQRKRNILEDGKSEEEKFPMKCDEIDPYSRQAIVIRYISDEVAKENIGGNQVYLIHQLLKLVRAPKFEAPEVDNYVVMGIVASNSGTRETVNGNKYCMLTLTDLKWQLECFLFGKAFERYWKIQSGTVIALLNPEVLKPKNPDIGRFSLKLDSEYDVLLEIGRSKHLGYCSSRRKSGELCKHWLDKRAGDVCEYHVDLAVQRSMSTRTEFASSMATMHEPRARREKRFRGQGFQGYFAGEKYSAIPNAVAGLYDAEDAVQTERERKERYKKQRAQAEREREILVRLSKRCCASSSSSSNSNNLSTGMSMRTLGHQYLNLQGSGVKNLHDKGNPTALSKDSEIDSSTKKPSVLASFNASIMNPKSSLPSFSNSAILGTNDAASGTPVPQDTTSTKVSPAVVFTSSPRIFSPQSLRKIGFDPTHSADASTTHSTATGLSRSGSLKNIKFRYEFTESDDEDDLEIVP

Source: doi:10.1101/303180
